Measurements: patent EP4480471A1, “SPECIFIC COMPOUNDS FOR TREATING SIGNS OF SKIN AGING AND/OR HAIR AGING” (DSM IP Assets B.V., priority 2023, dated 2024)
The name of at least one read-out is uncertain.

Tested on: human dermal fibroblasts
Test: Senolytic activity study: SA-beta-galactosidase flow cytometry on a mixed 70% normal / 30% senescent cell population
Type: cell-based
Details: 72 hours, 70% normal and 30% senescent human dermal fibroblasts, normalized to untreated control, n = 4
Description: Normal and senescent cell populations were obtained from normal human dermal fibroblasts. For the normal cell population, the cells were seeded in cell culture medium (Dulbecco's Modified Eagle Medium supplemented with 10% serum and 1% antibiotics) and allowed to adhere and proliferate in a humidified cell incubator maintaining 37°C and 5% CO2. These were then passaged or collected when 90% confluent. For the senescent cell population, the normal fibroblast cells were at this stage shortly exposed to 200 µM H2O2 followed by normal cell culture medium. Several days later, the cells were treated again with H2O2 to obtain a fully senescent population.
Both normal and senescent populations were mixed into a 70% normal and 30% senescent cell population and represented the treatment population. Afterward, the 70% normal and 30% senescent cell population were seeded in cell culture medium and allowed to adhere in the cell incubator. After adherence, the medium was aspirated, and the treatment medium (Dulbecco's Modified Eagle Medium supplemented with 1% serum) containing the respective compounds at various concentrations (see Table 1) was added to the cells. For assay validation purposes, one condition with treatment medium only (without compound as negative control) and one condition with navitoclax (a known senolytic as positive control); both not included in the presented data. The cells were incubated in the cell incubator for at least 72 hours. Afterward, senescence-associated beta-galactosidase was visualized - a well-known senescence marker- in the cells to quantify the senescence levels using flow cytometry.
Data are normalized to the untreated control (30% senescent cells and 70% normal cells) (n = 4).

| SMILES | Senescent cells left from 30% (1 µM) | Senescent cells left from 30% (5 µM) | Senescent cells left from 30% (25 µM) |
| --- | --- | --- | --- |
| COc1cc(O)c2c(c1)OC(c1ccccc1)CC2=O (stereo not drawn) [(I"6)] | 25% | 22% | 13% |
| COc1ccc(-c2cc(=O)c3c(OC)c(OC)c(OC)cc3o2)cc1 [(I'33)] | 26% | 25% | 23% |
